# Source: the supplement of paper PMC8728848
# The list shows a part of the results.
# How the values were obtained:
# Assay in all cases: glycan array binding signal (z-score within array); higher = stronger binding
# Details in all cases: glycan notation: IUPAC condensed, linker removed
# [1] = biological target: Neu5Ac(a2-3)Gal(b1-4)GlcNAc(b1-6)GalNAc
# Summary of the method: (§1)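 Columns mapping to the same glycan were averaged after glycan names were converted to IUPAC-condensed notation. The data come from 3228 arrays in the Consortium for Functional Glycomics database, limited to those with an available protein sequence. Binding is reported as a within-array Z-score averaged across arrays of one protein sequence and across linkers.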
# [2] = biological target: Neu5Ac(a2-3)Gal(b1-4)GlcNAc(b1-6)[Gal(b1-3)]GalNAc
# Summary of the method: as §1
# [3] = biological target: Neu5Ac(a2-3)Gal(b1-4)GlcNAc(b1-6)[Neu5Ac(a2-3)Gal(b1-3)]GalNAc
# Summary of the method: as §1
# [4] = biological target: Neu5Ac(a2-3)Gal(b1-4)GlcNAc6S
# Summary of the method: as §1
# [5] = biological target: Neu5Ac(a2-3)Gal(b1-4)[Fuc(a1-3)]GlcNAc
# Summary of the method: as §1
# [6] = biological target: Neu5Ac(a2-3)Gal(b1-4)[Fuc(a1-3)]GlcNAc(b1-2)Man
# Summary of the method: as §1
# [7] = biological target: Neu5Ac(a2-3)Gal(b1-4)[Fuc(a1-3)]GlcNAc(b1-3)Gal
# Summary of the method: as §1
# [8] = biological target: Neu5Ac(a2-3)Gal(b1-4)[Fuc(a1-3)]GlcNAc(b1-3)Gal(b1-4)GlcNAc
# Summary of the method: as §1
# [9] = biological target: Neu5Ac(a2-3)Gal(b1-4)[Fuc(a1-3)]GlcNAc(b1-3)Gal(b1-4)[Fuc(a1-3)]GlcNAc(b1-3)Gal(b1-4)[Fuc(a1-3)]GlcNAc
# Summary of the method: as §1
# [10] = biological target: Neu5Ac(a2-3)Gal(b1-4)[Fuc(a1-3)]GlcNAc(b1-3)GalNAc
# Summary of the method: as §1
# [11] = biological target: Neu5Ac(a2-3)Gal(b1-4)[Fuc(a1-3)]GlcNAc(b1-6)[Gal(b1-3)]GalNAc
# Summary of the method: as §1
# [12] = biological target: Neu5Ac(a2-3)Gal(b1-4)[Fuc(a1-3)]GlcNAc(b1-6)[Neu5Ac(a2-3)Gal(b1-3)]GalNAc
# Summary of the method: as §1
# [13] = biological target: Neu5Ac(a2-3)Gal(b1-4)[Fuc(a1-3)]GlcNAc6S
# Summary of the method: as §1
# [14] = biological target: Neu5Ac(a2-3)Gal6S(b1-4)GlcNAc
# Summary of the method: as §1
# [15] = biological target: Neu5Ac(a2-3)Gal6S(b1-4)[Fuc(a1-3)]GlcNAc
# Summary of the method: as §1
# Neu5Ac(a2-3)GalNAc = biological target: Neu5Ac(a2-3)GalNAc
# Summary of the method: as §1
# [16] = biological target: Neu5Ac(a2-3)GalNAc(b1-4)GlcNAc
# Summary of the method: as §1
# [17] = biological target: Neu5Ac(a2-3)[GalNAc(b1-4)]Gal(b1-4)Glc
# Summary of the method: as §1
# [18] = biological target: Neu5Ac(a2-3)[GalNAc(b1-4)]Gal(b1-4)GlcNAc
# Summary of the method: as §1
# [19] = biological target: Neu5Ac(a2-3)[GalNAc(b1-4)]Gal(b1-4)GlcNAc(b1-3)GalNAc
# Summary of the method: as §1
# [20] = biological target: Neu5Ac(a2-3)[Neu5Ac(a2-6)]GalNAc
# Summary of the method: as §1
# Neu5Ac(a2-6)Gal = biological target: Neu5Ac(a2-6)Gal
# Summary of the method: as §1
# [21] = biological target: Neu5Ac(a2-6)Gal(b1-3)GlcNAc(b1-3)[Gal(b1-4)GlcNAc(b1-6)]Gal(b1-4)Glc
# Summary of the method: as §1
# Neu5Ac(a2-6)Gal(b1-4)Glc = biological target: Neu5Ac(a2-6)Gal(b1-4)Glc
# Summary of the method: as §1
# [22] = biological target: Neu5Ac(a2-6)Gal(b1-4)GlcNAc
# Summary of the method: as §1
# [23] = biological target: Neu5Ac(a2-6)Gal(b1-4)GlcNAc(b1-2)Man
# Summary of the method: as §1
# [24] = biological target: Neu5Ac(a2-6)Gal(b1-4)GlcNAc(b1-2)Man(a1-3)Man(b1-4)GlcNAc(b1-4)GlcNAc
# Summary of the method: as §1
# [25] = biological target: Neu5Ac(a2-6)Gal(b1-4)GlcNAc(b1-2)Man(a1-3)[Gal(b1-4)GlcNAc(b1-2)Man(a1-6)]Man(b1-4)GlcNAc(b1-4)GlcNAc
# Summary of the method: as §1
# [26] = biological target: Neu5Ac(a2-6)Gal(b1-4)GlcNAc(b1-2)Man(a1-3)[GlcNAc(b1-2)Man(a1-6)]Man(b1-4)GlcNAc(b1-4)GlcNAc
# Summary of the method: as §1
# [27] = biological target: Neu5Ac(a2-6)Gal(b1-4)GlcNAc(b1-2)Man(a1-3)[GlcNAc(b1-4)][Neu5Ac(a2-6)Gal(b1-4)GlcNAc(b1-2)Man(a1-6)]Man(b1-4)GlcNAc(b1-4)GlcNAc
# Summary of the method: as §1
# [28] = biological target: Neu5Ac(a2-6)Gal(b1-4)GlcNAc(b1-2)Man(a1-3)[Man(a1-6)]Man(b1-4)GlcNAc(b1-4)GlcNAc
# Summary of the method: as §1
binder,measurement,setting,value
"SAOUHSC 02783 (Staphylococcus aureus), Q5HD69 (protein) MIHSKKLTLGICLVLLIILIVGYVIMTKTNGRNAQIKDTFNQTLKLYPTKNLDDFYDKEGFRDQEFKKGDKGTWIVNSEMVIEPKGKDMETRGMVLYINRNTRTTKGYYFISEMTDDSNGRPKDDEKRYPVKMEHNKIIPTKPLPNDKLKKEIENFKFFVQYGNFKDINDYKDGDISYNPNVPSYSAKYQLNNDDYNVQQLRKRYDIPTKQAPKLLLKGDGDLKGSSVGSRSLEFTFVENKEENIYFTDSVQYTPSEDTRYESN",glycan array binding signal (z-score),[1],-0.463
same,glycan array binding signal (z-score),[2],-0.423
same,glycan array binding signal (z-score),[3],-0.818
same,glycan array binding signal (z-score),[4],-1.07
same,glycan array binding signal (z-score),[5],-1.44
same,glycan array binding signal (z-score),[6],-1.22
same,glycan array binding signal (z-score),[7],-0.162
same,glycan array binding signal (z-score),[8],0.615
same,glycan array binding signal (z-score),[9],-1.17
same,glycan array binding signal (z-score),[10],0.742
same,glycan array binding signal (z-score),[11],0.664
same,glycan array binding signal (z-score),[12],-1.13
same,glycan array binding signal (z-score),[13],0.261
same,glycan array binding signal (z-score),[14],-0.652
same,glycan array binding signal (z-score),[15],0.323
same,glycan array binding signal (z-score),Neu5Ac(a2-3)GalNAc,-0.608
same,glycan array binding signal (z-score),[16],-0.653
same,glycan array binding signal (z-score),[17],0.453
same,glycan array binding signal (z-score),[18],-0.78
same,glycan array binding signal (z-score),[19],0.217
same,glycan array binding signal (z-score),[20],-0.905
same,glycan array binding signal (z-score),Neu5Ac(a2-6)Gal,-0.807
same,glycan array binding signal (z-score),[21],0.156
same,glycan array binding signal (z-score),Neu5Ac(a2-6)Gal(b1-4)Glc,0.228
same,glycan array binding signal (z-score),[22],-0.274
same,glycan array binding signal (z-score),[23],2.55
same,glycan array binding signal (z-score),[24],0.71
same,glycan array binding signal (z-score),[25],0.154
same,glycan array binding signal (z-score),[26],-0.396
same,glycan array binding signal (z-score),[27],0.127
same,glycan array binding signal (z-score),[28],0.298

# Two records picked at random from the list so far, as already listed:
binder,measurement,setting,value
"SAOUHSC 02783 (Staphylococcus aureus), Q5HD69 (protein) MIHSKKLTLGICLVLLIILIVGYVIMTKTNGRNAQIKDTFNQTLKLYPTKNLDDFYDKEGFRDQEFKKGDKGTWIVNSEMVIEPKGKDMETRGMVLYINRNTRTTKGYYFISEMTDDSNGRPKDDEKRYPVKMEHNKIIPTKPLPNDKLKKEIENFKFFVQYGNFKDINDYKDGDISYNPNVPSYSAKYQLNNDDYNVQQLRKRYDIPTKQAPKLLLKGDGDLKGSSVGSRSLEFTFVENKEENIYFTDSVQYTPSEDTRYESN",glycan array binding signal (z-score),[13],0.261
same,glycan array binding signal (z-score),[20],-0.905
